No constants are given. Whether binding was seen depends on the method and setting. Some results given as binding are weak or reduced against the parent protein; the word gives no strength.
Key:
[1] = molecular target: neuraminidase (NA) of influenza A/Hong Kong/1/68 (H3N2) (Influenza A virus A/Hong Kong/1/68 (H3N2)) (UniProt Q91MA2); experiment: cryo-EM structure
[2] = molecular target: neuraminidase (NA) of influenza A/Puerto Rico/8/1934 (H1N1) (Influenza A virus A/Puerto Rico/8/1934 (H1N1)) (UniProt P03468); experiment: in situ cryo-electron tomography

Sequences of proteins named here, by UniProt entry; tags and fusion partners are left off.
UniProt Q91MA2: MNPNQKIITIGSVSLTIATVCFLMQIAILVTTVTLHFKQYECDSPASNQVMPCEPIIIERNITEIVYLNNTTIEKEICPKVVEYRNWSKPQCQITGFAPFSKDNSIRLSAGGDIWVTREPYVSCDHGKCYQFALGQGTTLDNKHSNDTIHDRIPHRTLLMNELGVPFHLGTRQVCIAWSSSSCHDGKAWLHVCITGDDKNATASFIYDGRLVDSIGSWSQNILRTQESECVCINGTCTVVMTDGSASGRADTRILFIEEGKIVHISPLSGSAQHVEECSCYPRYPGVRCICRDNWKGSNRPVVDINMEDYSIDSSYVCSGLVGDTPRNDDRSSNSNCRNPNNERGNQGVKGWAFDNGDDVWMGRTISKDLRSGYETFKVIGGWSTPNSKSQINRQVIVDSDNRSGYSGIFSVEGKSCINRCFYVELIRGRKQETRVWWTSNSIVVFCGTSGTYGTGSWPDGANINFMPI
UniProt P03468: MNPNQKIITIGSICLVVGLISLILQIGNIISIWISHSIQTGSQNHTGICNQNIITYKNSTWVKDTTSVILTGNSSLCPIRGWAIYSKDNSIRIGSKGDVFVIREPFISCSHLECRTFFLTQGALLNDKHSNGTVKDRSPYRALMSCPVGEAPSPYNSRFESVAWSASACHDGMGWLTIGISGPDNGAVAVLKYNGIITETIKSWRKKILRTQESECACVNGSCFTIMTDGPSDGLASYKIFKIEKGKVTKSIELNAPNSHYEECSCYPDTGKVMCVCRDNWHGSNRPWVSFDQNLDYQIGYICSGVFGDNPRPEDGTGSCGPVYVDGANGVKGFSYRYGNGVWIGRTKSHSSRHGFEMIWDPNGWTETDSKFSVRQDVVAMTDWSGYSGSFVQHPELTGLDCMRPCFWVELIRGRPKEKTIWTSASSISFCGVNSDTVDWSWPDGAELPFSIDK

Substance | binding [1] | binding [2]
neuraminidase (NA) of influenza A/Hong Kong/1/68 (H3N2) (from UniProt Q91MA2 1-469) | binds | –
neuraminidase (NA) of influenza A/Puerto Rico/8/1934 (H1N1) (from UniProt P03468 1-454) | – | no binding

Reference: publication PMC12550032
